Laboratory results published in patent US8563513.
No constants are given. Whether binding was seen depends on the method and setting. Some entries that bind do so weakly or less than the wild type.

Chains of the proteins cited; added tags and fusions are not shown. Residues count along the entry.
UniProt Q03431, residues 27-593: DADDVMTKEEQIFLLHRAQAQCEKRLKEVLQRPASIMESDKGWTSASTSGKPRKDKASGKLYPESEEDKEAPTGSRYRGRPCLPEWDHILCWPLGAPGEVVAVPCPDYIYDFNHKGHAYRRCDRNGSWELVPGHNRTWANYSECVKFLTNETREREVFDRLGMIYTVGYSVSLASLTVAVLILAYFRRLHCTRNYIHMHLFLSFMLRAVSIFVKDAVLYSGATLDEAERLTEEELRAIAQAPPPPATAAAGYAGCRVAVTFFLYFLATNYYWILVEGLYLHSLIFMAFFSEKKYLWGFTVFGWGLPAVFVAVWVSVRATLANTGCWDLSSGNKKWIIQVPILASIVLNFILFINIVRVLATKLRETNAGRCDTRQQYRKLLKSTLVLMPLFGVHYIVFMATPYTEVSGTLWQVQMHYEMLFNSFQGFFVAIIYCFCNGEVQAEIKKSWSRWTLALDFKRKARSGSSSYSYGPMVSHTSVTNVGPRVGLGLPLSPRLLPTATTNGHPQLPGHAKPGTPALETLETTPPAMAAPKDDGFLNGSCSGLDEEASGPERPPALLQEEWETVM

Experiments:
[1] = biological target: PTH1R in cell membranes, G protein-uncoupled conformation (R0) (UniProt Q03431); assay: competition binding on cell membranes, R0 state of PTH1R (GTPγS in the reaction); SB (%) against ligand concentration; tracer not named in the filing [R0 left panel]
[2] = biological target: PTH1R in cell membranes, G protein-uncoupled conformation (R0) (UniProt Q03431); assay: competition binding on cell membranes, R0 state of PTH1R (GTPγS in the reaction); SB (%) against ligand concentration; tracer not named in the filing [R0 right panel]
[3] = biological target: PTH1R in cell membranes, G protein-uncoupled conformation (R0) (UniProt Q03431); assay: competition binding, PTH1R in cell membranes, R0 state

| Binder | binding [1] | binding [2] | binding [3] |
| --- | --- | --- | --- |
| SVSEIQLMHNLGKHLNSMERVEFLRKKLQDVHNF (C-terminal amide) [PTH(1-34)NH2 [W23F]] | binds | – | – |
| SVSEIQLMHNLGKHLNSMERVEWLRKLLQDVHNF (C-terminal amide) [PTH(1-34)[K27L]NH2] | binds | – | – |
| SVSEIQLMHNLGKHLNSMERVEWLRKKIQDVHNF (C-terminal amide) [PTH(1-34)NH2 [L28I]] | binds | – | – |
| SVSEIQLMHNLGKHLNSMERVEWLRKKLQDIHNF (C-terminal amide) [PTH(1-34)NH2 [V31I]] | binds | – | – |
| SVSEIQLMHNLGKHLNSMERVEFLRKLIQDIHNF (C-terminal amide) [PTH(1-34)NH2 [W23F/K27L/L28I/V31I]] | binds | – | – |
| SVSEIQLMHNLGKHLNSMERVEFLRKLLQDVHNF (C-terminal amide) [PTH(1-34)NH2 [W23F/K27L]] | – | binds | – |
| SVSEIQLMHNLGKHLNSMERVEFLRKKIQDVHNF (C-terminal amide) [PTH(1-34)NH2 [W23F/L28I]] | – | binds | – |
| SVSEIQLMHNLGKHLNSMERVEFLRKKLQDIHNF (C-terminal amide) [PTH(1-34)NH2 [W23′F/V31′I]] | – | binds | binds |
| SVSEIQLMHNLGKHLNSMERVEWLRKKIQDIHNF (C-terminal amide) [PTH(1-34)NH2 [L28I/V31I]] | – | binds | – |
| SVSEIQLMHNLGKHLNSMERVEWLRKLLQDIHNF (C-terminal amide) [PTH(1-34)NH2 [K27L/V31I]] | – | binds | – |
| AVSEHQLLHDKGKSIQDLRRRFWLHHKLAEVHTA (C-terminal amide) [PTHrP(1-34)NH2 [F23′W/L27′K/I28′L/I31′V]] | – | binds | binds |
